# The list is a part of this screen's results and no random one: it is rich in T/C values a quarter to a half above the control, in often repeated tests (any T/C) and in doses without a T/C. Further doses and runs are listed elsewhere. T/C: endpoint of the treated group in % of that of the vehicle group. Some entries give survivors of the animals treated and no T/C: the source holds a T/C of zero for them, seemingly a mark for toxic or unscored doses. Some doses without a T/C left all or most animals alive at the check, yet need not have been tolerated: survival well below the control is almost never listed, so the zero probably covers shortened survival too. Counts of survivors are from the toxicity check (mostly the fifth day) where no day follows; animals may have died later. Schedule codes are those of the source, read here as Q, the interval in days (D) or hours (H), X, the number of doses. Some entries were tested several times; their values stand side by side, smallest first. Where survival is the endpoint, the PubChem record calls one and a half times the control and up active, and a quarter to a half above the control has no call in these data; cut-offs in other NCI protocols can differ. Some T/C values carry the count of animals alive at the toxicity check (mostly the fifth day); where none is given, no animal had died by that day.
# System: B6C3F1 mice, B16 melanoma ip, median survival T/C
# Experiment: NCI In Vivo Anticancer Drug Screen. Data for tumor model B16 Melanoma (intraperitoneal) in B6C3F1 mice
# Conditions: T/C endpoint: median survival time, higher T/C = longer survival
# Method in brief: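 Mice bearing transplanted tumor were dosed with compound or vehicle, and survival was recorded. Activity is expressed as the treated-group measurement (T) divided by the vehicle control measurement (C).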
# [1] = dose: 1.0 mg/kg/injection, schedule: Q01DX009 (ip), vehicle: saline
# [2] = dose: 400.0 mg/kg/injection, schedule: Q01DX009 (ip), vehicle: Klucel (hydroxypropylcellulose) (HPC)
# [3] = dose: 100.0 mg/kg/injection, schedule: Q01DX009 (ip), vehicle: saline with Tween-80
# [4] = dose: 100.0 mg/kg/injection, schedule: Q01DX009 (ip), vehicle: saline
# [5] = dose: 100.0 mg/kg/injection, schedule: Q01DX009 (ip), vehicle: distilled water + Tween-80
# [6] = dose: 200.0 mg/kg/injection, schedule: Q01DX009 (ip), vehicle: distilled water + Tween-80
# [7] = dose: 400.0 mg/kg/injection, schedule: Q01DX009 (ip), vehicle: distilled water + Tween-80
# [8] = dose: 200.0 mg/kg/injection, schedule: Q01DX009 (ip), vehicle: saline with Tween-80
# [9] = dose: 400.0 mg/kg/injection, schedule: Q01DX009 (ip), vehicle: saline with Tween-80
# [10] = dose: 12.5 mg/kg/injection, schedule: Q01DX009 (ip), vehicle: distilled water + Tween-80
# [11] = dose: 25.0 mg/kg/injection, schedule: Q01DX009 (ip), vehicle: distilled water + Tween-80
# [12] = dose: 50.0 mg/kg/injection, schedule: Q01DX009 (ip), vehicle: saline with Tween-80
# [13] = dose: 200.0 mg/kg/injection, schedule: Q01DX009 (ip), vehicle: saline
smiles,measurement,setting,value
C/C=C(\C)c1cc(=O)c2c(C)cc3c(c2o1)C(=O)c1c(O)c(C2CC(C)(N(C)C)C(OC(C)=O)C(C)O2)cc(C2CC(N(C)C)C(O)C(C)O2)c1C3=O (centres undefined),T/C,"dose: 0.31 mg/kg/injection, schedule: Q01DX009 (ip), vehicle: saline",133 % of control
same,T/C,"dose: 0.62 mg/kg/injection, schedule: Q01DX009 (ip), vehicle: saline",140 % of control [9 of 10 alive]
same,T/C,"dose: 1.25 mg/kg/injection, schedule: Q01DX009 (ip), vehicle: saline",138 % of control
same,T/C,"dose: 1.25 mg/kg/injection, schedule: Q01DX009 (ip), vehicle: suspension in saline",127 % of control
same,T/C,"dose: 2.5 mg/kg/injection, schedule: Q01DX009 (ip), vehicle: suspension in saline",136 % of control
same,T/C,"dose: 5.0 mg/kg/injection, schedule: Q01DX009 (ip), vehicle: suspension in saline",125 % of control
Cc1c(N)nc(C(CC(N)=O)NCC(N)C(N)=O)nc1C(=O)NC(C(=O)NC(C)C(O)CC(=O)NC(C(=O)NC(OC1OC(C)C(N)C(O)C1O)C(O)c1nc(-c2nc(C(=O)NCCCC(N)CC(=O)NCCCNCCCCN)cs2)cs1)C(C)O)C(OC1OC(CO)C(O)C(O)C1OC1OC(CO)C(O)C(OC(N)=O)C1O)c1cnc[nH]1 (centres undefined),T/C,[1],128 % of control
same,T/C,"dose: 2.0 mg/kg/injection, schedule: Q01DX009 (ip), vehicle: saline",125 % of control
same,T/C,"dose: 4.0 mg/kg/injection, schedule: Q01DX009 (ip), vehicle: saline",144 % of control
same,T/C,"dose: 8.0 mg/kg/injection, schedule: Q01DX009 (ip), vehicle: saline",137 % of control
CC1=C(C(N)=O)C(c2ccccc2)NC(=S)N1 (centres undefined),survivor count,[2],8 of 10
CC(NC(=O)OCc1ccccc1)C(=O)NC(C(=O)O)C(C)O (centres undefined),survivor count,[2],10 of 10
Cc1nn(CCO)c(C)c1N=[N+]([O-])c1c(C)nn(CCO)c1C,survivor count,[3],9 of 10
COc1nc(C(Cl)(Cl)Cl)c(Cl)c(OC)c1Cl,survivor count,"dose: 100.0 mg/kg/injection, schedule: Q01DX009 (ip), vehicle: Klucel (hydroxypropylcellulose) (HPC)",9 of 10
same,survivor count,"dose: 200.0 mg/kg/injection, schedule: Q01DX009 (ip), vehicle: Klucel (hydroxypropylcellulose) (HPC)",10 of 10
same,survivor count,[2],4 of 10
C=C(C)[C@H]1CN[C@H](C(=O)O)[C@H]1CC(=O)O,survivor count,"dose: 50.0 mg/kg/injection, schedule: Q01DX009 (ip), vehicle: saline",5 of 10
same,survivor count,[4],0 of 10
CCc1nc(N)nc(N)c1-c1ccc(Cl)c(N=[N+]=[N-])c1,T/C,[5],126 and 142 % of control [9 of 10 alive]
same,T/C,[6],140 % of control
same,survivor count,[7],10 of 10 and 9 of 9
COP12(OCCO1)SC(C(F)(F)F)=C(C(F)(F)F)S2,survivor count,[3],0 of 10
same,survivor count,[8],0 of 10
same,survivor count,[9],0 of 10
CC(C)CCC(=O)c1ccoc1,survivor count,"dose: 4.0 mg/kg/injection, schedule: Q01DX009 (ip), vehicle: saline with Tween-80",6 of 10
Cn1c(-c2ccc(/C=N\N3CCN(/N=C/c4ccc(-c5c[n+]6ccsc6n5C)cc4)CC3)cc2)c[n+]2ccsc12,survivor count,"dose: 12.0 mg/kg/injection, schedule: Q01DX009 (ip), vehicle: saline with Tween-80",0 of 10
COC1C(CO)OC(n2c3c(Cl)cccc3c3c4c(c5c6cccc(Cl)c6[nH]c5c32)C(=O)NC4=O)C(O)C1O (centres undefined),T/C,[10],125 and 132 % of control
same,T/C,[11],127 and 135 % of control
same,T/C,"dose: 50.0 mg/kg/injection, schedule: Q01DX009 (ip), vehicle: distilled water + Tween-80","136, 141, 144 % of control"
same,T/C,[5],135 % of control [9 of 10 alive]
same,T/C,[6],141 and 144 % of control
same,survivor count,[7],9 of 10
Cc1ccnc(NN=O)c1,survivor count,"dose: 12.5 mg/kg/injection, schedule: Q01DX009 (ip), vehicle: water",10 of 10
same,survivor count,"dose: 25.0 mg/kg/injection, schedule: Q01DX009 (ip), vehicle: water",10 of 10
C=C(OC)C(Nc1cc(OC)c(OC)cc1C(=O)OC1CC(O[C@@H]2C(=O)C(NC(=O)OC)=C3/C(=C\CSSSC)[C@]2(O)C#C/C=C\C#C[C@@H]3OC2OC(C)C(NOC3CC(O)C(SC)C(C)O3)C(O)C2OC2CC(OC)C(NCCC)CO2)OC(C)C1O)OC (some centres undefined),survivor count,"dose: 1.25 micrograms/kg/injection, schedule: Q01DX009 (ip), vehicle: saline + alcohol",9 of 10
same,survivor count,"dose: 2.5 micrograms/kg/injection, schedule: Q01DX009 (ip), vehicle: saline + alcohol",8 of 10
same,survivor count,"dose: 5.0 micrograms/kg/injection, schedule: Q01DX009 (ip), vehicle: saline + alcohol",1 of 10
same,T/C,"dose: 10.0 nanograms/kg/injection, schedule: Q01DX009 (ip), vehicle: saline + alcohol",137 % of control
Nc1nc(-c2ccccc2)c(Br)c(=O)[nH]1,T/C,[12],132 % of control
same,T/C,"dose: 100.0 mg/kg/injection, schedule: Q01DX009 (ip), vehicle: saline with Tween-80, evaluated on day 55",132 % of control
same,T/C,"dose: 100.0 mg/kg/injection, schedule: Q01DX009 (ip), vehicle: saline with Tween-80, evaluated on day 60","155, 160, 189 % of control"
same,T/C,"dose: 200.0 mg/kg/injection, schedule: Q01DX009 (ip), vehicle: saline with Tween-80, evaluated on day 55",122 % of control
same,T/C,"dose: 200.0 mg/kg/injection, schedule: Q01DX009 (ip), vehicle: saline with Tween-80, evaluated on day 60","113, 168, 173 % of control"
same,T/C,"dose: 400.0 mg/kg/injection, schedule: Q01DX009 (ip), vehicle: saline with Tween-80, evaluated on day 55",155 % of control
same,T/C,"dose: 400.0 mg/kg/injection, schedule: Q01DX009 (ip), vehicle: saline with Tween-80, evaluated on day 60","143, 154, 198 % of control"
CCC1=C[C@H]2CN(CCc3c([nH]c4ccccc34)[C@@](C(=O)OC)(c3cc4c(cc3OC)N(C)[C@H]3[C@@](O)(C(=O)NC)[C@H](OC(C)=O)[C@]5(CC)C=CCN6CC[C@]43[C@@H]65)C2)C1,survivor count,[1],10 of 10
O=C1c2ccccc2C(Cl)(c2ccc(Cl)cc2)c2ccc(Cl)cc21 (centres undefined),survivor count,"dose: 12.5 mg/kg/injection, schedule: Q01DX009 (ip), vehicle: saline with Tween-80",4 of 10
same,T/C,[3],134 % of control
same,survivor count,[8],7 of 10
same,survivor count,[9],7 of 10
O=CC(CO)CC(C=O)n1cnc2c(=O)[nH]cnc21 (centres undefined),survivor count,"dose: 600.0 mg/kg/injection, schedule: Q01DX009 (ip), vehicle: saline",4 of 10
CC1(CO)C(O)CCC2(C)C1CCC1CC3CC12CCC3(O)CO (centres undefined),T/C,"dose: 10.0 mg/kg/injection, schedule: Q03HX027 (ip), vehicle: saline with Tween-80",143 % of control
same,T/C,[10],139 % of control
same,T/C,"dose: 20.0 mg/kg/injection, schedule: Q03HX027 (ip), vehicle: saline with Tween-80",135 and 147 % of control
same,T/C,[11],140 % of control
same,T/C,"dose: 25.0 mg/kg/injection, schedule: Q01DX009 (ip), vehicle: saline with Tween-80",146 % of control
same,T/C,"dose: 30.0 mg/kg/injection, schedule: Q01DX005 (ip), vehicle: Klucel (hydroxypropylcellulose) (HPC)",135 % of control
same,T/C,[12],133 and 147 % of control
same,T/C,"dose: 60.0 mg/kg/injection, schedule: Q01DX005 (ip), vehicle: Klucel (hydroxypropylcellulose) (HPC)",141 % of control
same,survivor count,"dose: 80.0 mg/kg/injection, schedule: Q03HX027 (ip), vehicle: saline with Tween-80",10 of 10
same,survivor count,"dose: 160.0 mg/kg/injection, schedule: Q03HX027 (ip), vehicle: saline with Tween-80",6 of 10 and 10 of 10
same,survivor count,[8],10 of 10
same,T/C,[13],149 % of control
same,survivor count,"dose: 240.0 mg/kg/injection, schedule: Q01DX005 (iv), vehicle: Klucel (hydroxypropylcellulose) (HPC)",0 of 10
same,survivor count,[9],8 of 10
O=C[C@@H](CO)O[C@H](C=O)c1c[nH]c(=O)[nH]c1=O,survivor count,[4],1 of 10
same,survivor count,[13],0 of 10
same,survivor count,"dose: 400.0 mg/kg/injection, schedule: Q01DX009 (ip), vehicle: saline",0 of 10
O=C(Nc1ccccc1CCl)Nc1ccccc1CCl,survivor count,[9],7 of 10

# — PubChem BioAssay AID200 (DTP/NCI, 2004)
